Results are given in words; binding and its absence hold for the method and conditions named. A result given as binding can be weak or reduced; the word gives no strength. For some assays here: Binding seen in cells or lysates may run through a third protein.
Columns and labels:
[1] = target: Thermotoga maritima encapsulin shell protein W90E (Thermotoga maritima); assay: co-purification; shell (W90E) and FLP co-expressed in E. coli; encapsulin purified by heat step, ammonium sulfate, ultracentrifugation and Superose 6; purified sample said to contain the FLP cargo; both purified
[2] = target: Thermotoga maritima encapsulin shell protein (Thermotoga maritima); assay: cryo-EM structure; FLP-loaded encapsulin, co-expressed in E. coli and purified as a complex; 2 mg/mL, 0.05% NP-40; 2D classes, I1 reconstruction of the shell (3.3 Å), C1 reconstruction, symmetry expansion and focused classification of the FLP at a pentameric vertex (shell ~3.5 Å, FLP ~7 Å); both purified

binding [1]: binds
binding [2]: binds
B1: Thermotoga maritima ferritin-like protein (FLP) cargo (natural protein, UniProt Q9WZP3 1-114, looked up)
chain: MADQYHEPVSELTGKDRDFVRALNSLKEEIEAVAWYHQRVVTTKDETVRKILEHNRDEEMEHAAMLLEWLRRNMPGWDEALRTYLFTDKPITEIEEETSGGSENTGGDLGIRKL
notes: ferritin-like protein, native cargo of the Thermotoga maritima encapsulin; Decamer with fivefold symmetry; The map of the cargo (EMD-24002) has no atomic model of its own; a homologous FLP crystal structure (PDB 5DA5) was docked as a rigid body; also called cargo protein; ferritin-like cargo protein; copies: 10

From paper PMC8610991, “The encapsulin from Thermotoga maritima is a flavoprotein with a symmetry matched ferritin-like cargo protein” (Scientific Reports, 2021)
